Reference: publication PMC5667882
No constants are given. Whether binding was seen depends on the method and setting. In cells and extracts the contact can be indirect. These calls come from enrichment with a bait or labelling near it, and not all partners need be listed.

Sequences of proteins named here, by UniProt entry; tags and fusion partners are left off. A change or cut given only in a name is not applied to a line headed by its entry.
UniProt Q869J2: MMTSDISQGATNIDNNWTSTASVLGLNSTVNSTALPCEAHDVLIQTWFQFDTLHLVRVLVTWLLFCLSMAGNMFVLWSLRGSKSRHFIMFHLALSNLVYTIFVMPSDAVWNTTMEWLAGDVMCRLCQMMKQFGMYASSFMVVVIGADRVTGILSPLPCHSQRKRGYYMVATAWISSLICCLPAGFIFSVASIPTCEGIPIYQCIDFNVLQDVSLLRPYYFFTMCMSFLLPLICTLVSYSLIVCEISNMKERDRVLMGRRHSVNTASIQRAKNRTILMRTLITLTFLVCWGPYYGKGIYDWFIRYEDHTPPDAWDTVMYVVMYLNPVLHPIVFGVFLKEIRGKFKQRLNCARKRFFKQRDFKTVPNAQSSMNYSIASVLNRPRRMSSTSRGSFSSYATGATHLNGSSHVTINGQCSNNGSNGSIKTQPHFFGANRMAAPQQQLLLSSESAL
UniProt Q62053: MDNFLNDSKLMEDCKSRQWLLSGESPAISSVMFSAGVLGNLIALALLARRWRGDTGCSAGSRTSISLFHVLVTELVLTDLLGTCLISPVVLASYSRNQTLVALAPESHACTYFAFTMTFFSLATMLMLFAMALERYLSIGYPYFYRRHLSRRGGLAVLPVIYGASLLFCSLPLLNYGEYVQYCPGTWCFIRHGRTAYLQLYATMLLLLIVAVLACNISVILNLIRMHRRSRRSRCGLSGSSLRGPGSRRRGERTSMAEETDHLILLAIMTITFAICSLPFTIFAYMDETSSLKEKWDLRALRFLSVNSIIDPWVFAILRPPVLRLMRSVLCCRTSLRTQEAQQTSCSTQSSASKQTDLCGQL
UniProt D2KZ69: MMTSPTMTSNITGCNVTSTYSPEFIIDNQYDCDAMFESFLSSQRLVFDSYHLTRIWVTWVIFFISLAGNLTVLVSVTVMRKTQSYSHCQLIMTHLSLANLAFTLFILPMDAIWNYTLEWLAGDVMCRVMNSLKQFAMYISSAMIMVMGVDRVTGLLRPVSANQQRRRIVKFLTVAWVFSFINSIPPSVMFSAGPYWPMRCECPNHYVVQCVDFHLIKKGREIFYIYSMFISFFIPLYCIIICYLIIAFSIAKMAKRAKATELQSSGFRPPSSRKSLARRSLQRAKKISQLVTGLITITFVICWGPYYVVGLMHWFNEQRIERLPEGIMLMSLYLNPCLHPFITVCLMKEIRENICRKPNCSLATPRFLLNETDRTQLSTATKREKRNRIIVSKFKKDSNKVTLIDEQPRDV

Experiments:
[1] = target: V5-tagged Ciona intestinalis gonadotropin-releasing hormone (GnRH) receptor 1 (Ci-GnRHR1) (Ciona intestinalis) (UniProt Q869J2); experiment: affinity purification with mass spectrometry; Co-IP with anti-V5 antibody from membrane proteins of HEK293MSR cells expressing R1V5 and R4Myc, protease digestion, nano-LC-MS/MS, database assignment
[2] = target: prostaglandin E2 (PGE2) receptor 2 (EP2) (mouse (endogenous in OV3121)) (UniProt Q62053); experiment: affinity purification with mass spectrometry; 800 ug OV3121 membrane proteins in RIPA buffer, Co-IP overnight at 4°C with 6 ug rabbit monoclonal anti-EP2 antibody and protein G sepharose, SDS-PAGE, in-gel trypsin/Lys-C digestion with SDC, nano-LC-Orbitrap MS/MS

Row | Molecule | binding [1] | binding [2]
1 | Myc-tagged Ciona intestinalis gonadotropin-releasing hormone (GnRH) receptor 4 (Ci-GnRHR4) (from UniProt D2KZ69) | binds | 
2 | calcitonin (CT) receptor (CTR) (receptor, UniProt Q60755 42-533) APTNLTDSGLDQEPFLYLVGRKKLLDAQYKCYDRIHQLPSYEGEGLYCNRTWDGWMCWDDTPAGATAYQHCPDYFPDFDTAEKVSKYCDENGEWFRHPDSNRTWSNYTLCNAFTSEKLQNAYVLYYLALVGHSLSIAALVASMLIFWIFKNLSCQRVTLHKHMFLTYILNSIIIIIHLVEVVPNGDLVRRDPMHIFHHNTHMWTMQWELSPPLPLSAHEGKMDPHASEVISCKVLHFLHQYMMSCNYFWMLCEGIYLHTLIVMAVFTDEQRLRWYYLLGWGFPIVPTIIHAITRALYYNDNCWLSAETHLLYIIHGPVMVALVVNFFFLLNIVRVLVTKMRQTHEAESYMYLKAVKATMVLVPLLGIQFVVFPWRPSNKVLGKIYDYLMHSLIHFQGFFVATIYCFCNHEVQVTLKRQWTQFKIQWSQRWGRRRRPTNRVVSAPRAVAFAEPDGLPIYICHQEPRNPPISNNEGEESTEMIPMNVIQQDASA |  | binds
